Data: patent publication US20050014681A1, “Medicinal compositions for nasal absorption” (priority 2001, published 2005)
Part of at least one peptide drawing is inferred or uncertain, most often the ends.

Experiment: Stability of the solution of GLP-1 (7-36)NH2 pharmaceutical composition on storage
Format: physicochemical
Settings: 5 mg/mL solution

For `CC[C@H](C)[C@H](NC(=O)[C@H](Cc1ccccc1)NC(=O)[C@H](CCC(=O)O)NC(=O)[C@H](CCCCN)NC(=O)[C@H](C)NC(=O)[C@H](C)NC(=O)[C@H](CCC(N)=O)NC(=O)CNC(=O)[C@H](CCC(=O)O)NC(=O)[C@H](CC(C)C)NC(=O)[C@H](Cc1ccc(O)cc1)NC(=O)[C@H](CO)NC(=O)[C@H](CO)NC(=O)[C@@H](NC(=O)[C@H](CC(=O)O)NC(=O)[C@H](CO)NC(=O)[C@@H](NC(=O)[C@H](Cc1ccccc1)NC(=O)[C@@H](NC(=O)CNC(=O)[C@H](CCC(=O)O)NC(=O)[C@H](C)NC(=O)[C@@H](N)Cc1c[nH]cn1)[C@@H](C)O)[C@@H](C)O)C(C)C)C(=O)N[C@@H](C)C(=O)N[C@@H](Cc1c[nH]c2ccccc12)C(=O)N[C@@H](CC(C)C)C(=O)N[C@H](C(=O)N[C@@H](CCCCN)C(=O)NCC(=O)N[C@@H](CCCNC(=N)N)C(N)=O)C(C)C` [GLP-1(7-36)NH2, GLP-1 (7-36)NH2], the pH (Initial, 25° C.) was 2.80, the pH (Initial, 40° C.) was 2.80 and the pH (Week 1, 25° C.) was 2.78. The pH (Week 1, 40° C.) was 2.78, the pH (Week 2, 25° C.) was 2.78 and the pH (Week 2, 40° C.) was 2.71.
